From article doi:10.1101/2023.08.07.552250
Results are given in words; binding and its absence hold for the method and conditions named. Some entries that bind do so weakly or less than the wild type.

T1: serine/arginine-rich 45 (SR45), SR45.1 isoform (Arabidopsis thaliana) (UniProt Q9SEE9)
T1 sequence: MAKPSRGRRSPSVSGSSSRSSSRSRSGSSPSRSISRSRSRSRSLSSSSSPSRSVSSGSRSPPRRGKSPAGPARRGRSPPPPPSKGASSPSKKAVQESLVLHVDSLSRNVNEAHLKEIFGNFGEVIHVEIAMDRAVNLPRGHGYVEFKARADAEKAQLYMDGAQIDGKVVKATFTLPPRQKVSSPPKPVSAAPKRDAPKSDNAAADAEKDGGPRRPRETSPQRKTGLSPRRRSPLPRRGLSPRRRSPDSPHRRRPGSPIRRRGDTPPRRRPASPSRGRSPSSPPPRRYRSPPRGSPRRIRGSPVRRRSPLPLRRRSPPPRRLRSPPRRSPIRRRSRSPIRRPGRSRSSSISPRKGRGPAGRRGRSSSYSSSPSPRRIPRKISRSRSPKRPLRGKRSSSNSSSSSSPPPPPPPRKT

B1: SC35 (protein, UniProt Q9FMG4 1-303)
chain: MSHFGRSGPPDISDTYSLLVLNITFRTTADDLYPLFAKYGKVVDVFIPRDRRTGDSRGFAFVRYKYKDEAHKAVERLDGRVVDGREITVQFAKYGPNAEKISKGRVVEPPPKSRRSRSRSPRRSRSPRRSRSPPRRRSPRRSRSPRRRSRDDYREKDYRKRSRSRSYDRRERHEEKDRDHRRRTRSRSASPDEKRRVRGRYDNESRSHSRSLSASPARRSPRSSSPQKTSPAREVSPDKRSNERSPSPRRSLSPRSPALQKASPSKEMSPERRSNERSPSPGSPAPLRKVDAASRSQSPYAAE
B2: SR34 (protein, UniProt O22315 1-303)
chain: MSSRSSRTVYVGNLPGDIREREVEDLFSKYGPVVQIDLKVPPRPPGYAFVEFDDARDAEDAIHGRDGYDFDGHRLRVELAHGGRRSSDDTRGSFNGGGRGGGRGRGDGGSRGPSRRSEFRVLVTGLPSSASWQDLKDHMRKGGDVCFSQVYRDARGTTGVVDYTCYEDMKYALKKLDDTEFRNAFSNGYVRVREYDSRKDSRSPSRGRSYSKSRSRSRGRSVSRSRSRSRSRSRSPKAKSSRRSPAKSTSRSPGPRSKSRSPSPRRSRSRSRSPLPSVQKEGSKSPSKPSPAKSPIHTRSPSR
B3: RS31a (protein, UniProt Q9ZPX8 1-250)
chain: MRHVYVGNFDYDTRHSDLERLFSKFGRVKRVDMKSGYAFVYFEDERDAEDAIRRTDNTTFGYGRRKLSVEWAKDFQGERGKPRDGKAVSNQRPTKTLFVINFDPIRTRERDMERHFEPYGKVLNVRMRRNFAFVQFATQEDATKALDSTHNSKLLDKVVSVEYALREAGEREDRYAGSRRRRSPSPVYRRRPSPDYTRRRSPEYDRYKGPAPYERRKSPDYGRRSSDYGRARARSPGYDRSRSPIQRARG
B4: SCL30 (protein, UniProt Q8L3X8 1-262)
chain: MRRYSPPYYSPPRRGYGGRGRSPPPPPPRRGYGGGGGGGGRRGSSHGSLLVRNIPLDCRPEELREPFERFGPVRDVYIPRDYYSGQPRGFAFVEFVDAYDAGEAQRSMNRRSFAGREITVVVASESRKRPEEMRVKTRTRSREPSGSRDRSHGRSRSRSISRSRSPRRPSDSRSRYRSRSYSPAPRRRGGPPRGEEDENYSRRSYSPGYEGAAAAAPDRDRNGDNEIREKPGYEAEDRRRGGRAVSRSPSGSRSRSVEVSPR
B5: RSZ21 (protein, UniProt O81127 1-187)
chain: MTRVYVGNLDPRVTERELEDEFKAFGVLRNVWVARRPPGYAFLEFDDERDALDAISALDRKNGWRVELSHKDKGGRGGGGGRRGGIEDSKCYECGELGHFARECRRGRGSVRRRSPSPRRRRSPDYGYARRSISPRGRRSPPRRRSVTPPRRGRSYSRSPPYRGSRRDSPRRRDSPYGRRSPYANGV
B6: RS2Z33 (protein, UniProt Q8VYA5 1-290)
chain: MPRYDDRYGNTRLYVGRLSSRTRTRDLERLFSRYGRVRDVDMKRDYAFVEFGDPRDADDARHYLDGRDFDGSRITVEFSRGAPRGSRDFDSRGPPPGAGRCFNCGVDGHWARDCTAGDWKNKCYRCGERGHIERNCKNSPKKLRRSGSYSRSPVRSRSPRRRRSPSRSLSRSRSYSRSRSPVRRRERSVEERSRSPKRMDDSLSPRARDRSPVLDDEGSPKIIDGSPPPSPKLQKEVGSDRDGGSPQDNGRNSVVSPVVGAGGDSSKEDRSPVDDDYEPNRTSPRGSESP
B7: RS31 (protein, UniProt P92964 1-264)
chain: MRPVFVGNFEYETRQSDLERLFDKYGRVDRVDMKSGYAFVYFEDERDAEDAIRKLDNFPFGYEKRRLSVEWAKGERGRPRGDAKAPSNLKPTKTLFVINFDPIRTKEHDIEKHFEPYGKVTNVRIRRNFSFVQFETQEDATKALEATQRSKILDRVVSVEYALKDDDERDDRNGGRSPRRSLSPVYRRRPSPDYGRRPSPGQGRRPSPDYGRARSPEYDRYKGPAAYERRRSPDYGRRSSDYGRQRSPGYDRYRSRSPVPRGRP
B8: RS40 (protein, UniProt P92965 1-350)
chain: MKPVFCGNFEYDAREGDLERLFRKYGKVERVDMKAGFAFVYMEDERDAEDAIRALDRFEFGRKGRRLRVEWTKSERGGDKRSGGGSRRSSSSMRPSKTLFVINFDADNTRTRDLEKHFEPYGKIVNVRIRRNFAFIQYEAQEDATRALDASNNSKLMDKVISVEYAVKDDDARGNGHSPERRRDRSPERRRRSPSPYKRERGSPDYGRGASPVAAYRKERTSPDYGRRRSPSPYKKSRRGSPEYGRDRRGNDSPRRRERVASPTKYSRSPNNKRERMSPNHSPFKKESPRNGVGEVESPIERRERSRSSPENGQVESPGSIGRRDSDGGYDGAESPMQKSRSPRSPPADE
B9: RS41 (protein, UniProt P92966 1-356)
chain: MKPVFCGNFEYDARESDLERLFRKYGKVERVDMKAGFAFVYMEDERDAEDAIRALDRFEYGRTGRRLRVEWTKNDRGGAGRSGGSRRSSSGLRPSKTLFVINFDAQNTRTRDLERHFEPYGKIVNVRIRRNFAFIQYEAQEDATRALDATNSSKLMDKVISVEYAVKDDDSRGNGYSPERRRDRSPDRRRRSPSPYRRERGSPDYGRGASPVAHKRERTSPDYGRGRRSPSPYKRARLSPDYKRDDRRRERVASPENGAVRNRSPRKGRGESRSPPPYEKRRESRSPPPYEKRRESRSPPPYEKRRERSRSRSKSSPENGQVESPGQIMEVEAGRGYDGADSPIRESPSRSPPAEE
B10: RSZ22 (protein, UniProt O81126 1-200)
chain: MSRVYVGNLDPRVTERELEDEFRAFGVVRSVWVARRPPGYAFLDFEDPRDARDAIRALDGKNGWRVEQSHNRGERGGGGRGGDRGGGGGGRGGRGGSDLKCYECGETGHFARECRNRGGTGRRRSKSRSRTPPRYRRSPSYGRRSYSPRARSPPPPRRRSPSPPPARGRSYSRSPPPYRAREEVPYANGNGLKERRRSRS
B11: RSZ22a (protein, UniProt Q9SJA6 1-196)
chain: MSRVYVGNLDPRVTERELEDEFRSFGVIRSVWVARRPPGYAFLDFEDSRDARDAIREVDGKNGWRVEQSHNRGGGGGRGGGRGGGDGGRGRGGSDLKCYECGESGHFARECRSRGGSGGRRRSRSRSRSPPRYRKSPTYGGRRSYSPRARSPPPPRRRSPSPRGRNYSRSPPPYRARDEVPYANGNGLKDVRRSRS
B12: SCL28 (protein, UniProt Q1PDV2 1-236)
chain: MARARSRSRSYSPRPRDRSPPRERKGYDDNRLRERPSSRDHESSGPSGLLIRNLPLDARPNDLRDSFERFGPLKDIYLPRNYYTGEPRGFGFVKYRYAEDAAEAMKRMNHKVIGGREIAIVFAEENRKTPQEMRTTNGTSGRHGDYKRTSHRSPRRRYRSHSRSRSPPRRESRHSKVREDDLYSPRRRSRSISRSPLPRNEREYKSRNCRSPREERVLTPIRSRCLSRSRSRSLSR
B13: SCL30a (protein, UniProt Q9LHP2 1-262)
chain: MRGRSYTPSPPRGYGRRGRSPSPRGRFGGSRDSDLPTSLLVRNLRHDCRQEDLRRPFEQFGPVKDIYLPRDYYTGDPRGFGFIQFMDPADAAEAKHQMDGYLLLGRELTVVFAEENRKKPTEMRTRDRGGRSNRFQDRRRSPPRYSRSPPPRRGRRSRSRSRGYNSPPAKRHQSRSVSPQDRRYEKERSYSRSPPHNGSRVRSGSPGRVKSHSRSPRRSVSPRKNRSYTPEQARSQSPVPRQSRSPTPVPRGAQNGDRSPSQ
B14: SCL33 (protein, UniProt Q9SEU4 1-287)
chain: MRGRSYTPSPPRGYGRRGRSPSPRGRYGGRSRDLPTSLLVRNLRHDCRQEDLRKSFEQFGPVKDIYLPRDYYTGDPRGFGFVQFMDPADAADAKHHMDGYLLLGRELTVVFAEENRKKPTEMRARERGGGRFRDRRRTPPRYYSRSRSPPPRRGRSRSRSGDYYSPPPRRHHPRSISPREERYDGRRSYSRSPASDGSRGRSLTPVRGKSRSLSPSPRRSISRSPRRSRSPSPKRNRSVSPRRSISRSPRRSRSPRRSRRSYTPEPARSRSQSPHGGQYDEDRSPSQ
B15: SR30 (protein, UniProt Q9XFR5 1-268)
chain: MSSRWNRTIYVGNLPGDIRKCEVEDLFYKYGPIVDIDLKIPPRPPGYAFVEFEDPRDADDAIYGRDGYDFDGCRLRVEIAHGGRRFSPSVDRYSSSYSASRAPSRRSDYRVLVTGLPPSASWQDLKDHMRKAGDVCFSEVFPDRKGMSGVVDYSNYDDMKYAIRKLDATEFRNAFSSAYIRVREYESRSVSRSPDDSKSYRSRSRSRGPSCSYSSKSRSVSPARSISPRSRPLSRSRSLYSSVSRSQSRSKSRSRSRSNSPVSPVISG
B16: SR34a (protein, UniProt A2RVS6 1-300)
chain: MSGRFSRSIYVGNLPGDIREHEIEDIFYKYGRIVDIELKVPPRPPCYCFVEFEHSRDAEDAIKGRDGYNLDGCRLRVELAHGGRGQSSSDRRGGYGGGGSGYGGGGGGGGSARFGVSRHSEFRVIVRGLPSSASWQDLKDHMRKAGDVCFAEVTRDSDGTYGVVDYTNYDDMKYAIRKLDDTEFRNPWARGFIRVKKYESSRSRSRSPSRSRSRSRSRSRSRGRGRSHSRSRSLSRSKSPRKDLSKSPRRSLSRSISKSRSPSPDKKKSPPRAMSRSKSRSRSRSRSPSKSPPKVREGSV
B17: SR34b (protein, UniProt F4JHI7 1-278)
chain: MSSRSSRTIYVGNLPGDIREREVEDLFSKYGPVVQIDLKIPPRPPGYAFVEFEDARDADDAIYGRDGYDFDGHHLRVELAHGGRRSSHDARGSYSGRGRGGRGGGDGGGRERGPSRRSEYRVVVSGLPSSASWQDLKDHMRKGGEVCFSQVFRDGRGTTGIVDYTSYEDMKYALDDTEFRNAFSHEYVRVREYDSRRDSRSPSRGRSYSKSRSRGRSPSRSRSRSRSRSKSRSPKAKSLRRSPAKSTSRSPRSRSRSKSRSLSPRGWVTVERHWIALI

The binders below were run against T1, serine/arginine-rich 45 (SR45), SR45.1 isoform (Arabidopsis thaliana) (assay: two-hybrid).

Row | Binder | binding
1 | B1 | binds
2 | B2 | binds
3 | B3 | binds
4 | B4 | binds
5 | B5 | binds
6 | B6 | binds
7 | B7 | binds
8 | B8 | binds
9 | B9 | binds
10 | B10 | binds
11 | B11 | binds
12 | B12 | binds
13 | B13 | binds
14 | B14 | binds
15 | B15 | binds
16 | B16 | binds
17 | B17 | binds
